Measurements: the supplement of paper PMC7024190
The other results are listed elsewhere or left out. Single values are uncertain here, since repeats match poorly.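 The cells were human embryonic kidney cells carrying a Renilla luciferase gene, driven by the HSV-TK promoter, on a plasmid put in briefly by transfection. This is the first-round screen of about ten thousand compounds, looking for ones that raise reporter output.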

Tested on: HEK 293FT
Test: log relative Renilla luciferase luminescence (reporter expression vs reference, reference not stated) (log (base not stated)); higher = higher recombinant reporter expression
Details: 10 µM; time after transfection 48 h

Compared with `C/C=C1\[C@H]2C=C(C)C[C@]1(N)c1ccc(=O)[nH]c1C2`, `COc1cc(-c2ccc(=O)[nH]n2)ccc1OC(F)F` is higher in log: -0.105 for the first, 0.184 for the second.

`CCN1CCC[C@H]1CNC(=O)c1c(O)c(Cl)cc(Cl)c1OC` [Raclopride] and `CCCCN1CCCC1CNC(=O)c1cc(C#N)c2ccccc2c1OC` (stereo not drawn) [Nafadotride] are within 0.2 log units of each other in log: 0.114 for the first, 0.134 for the second.

`CCCc1nc(C)c2c(=O)nc(-c3cc(S(=O)(=O)N4CCN(CC)CC4)ccc3OCC)[nH]n12` and `CCOC(=O)[C@H](CCc1ccccc1)N[C@@H](C)C(=O)N1[C@H](C(=O)O)C[C@@H]2CCC[C@@H]21` are within 0.2 log units of each other in log: 0.143 for the first, 0.0439 for the second.

First: CN1CC(=O)N2[C@H](c3ccc4c(c3)OCO4)c3[nH]c4ccccc4c3C[C@@H]2C1=O
Second: O=C(CCCN1CC=C(n2c(=O)[nH]c3ccccc32)CC1)c1ccc(F)cc1
The log of the first is higher: -0.0868 for the first, -0.924 for the second.

`COc1ccccc1OCCNCC(O)COc1cccc2[nH]c3ccccc3c12` (stereo not drawn) [Carvedilol] and `O=C1[C@H](CC[C@H](O)c2ccc(F)cc2)[C@@H](c2ccc(O)cc2)N1c1ccc(F)cc1` are within 0.2 log units of each other in log: 0.0247 for the first, 0.00866 for the second.

Going from `COc1ccc(-c2oc3c(CC=C(C)C)c(O[C@@H]4O[C@H](CO)[C@@H](O)[C@H](O)[C@H]4O)cc(O)c3c(=O)c2O[C@@H]2O[C@@H](C)[C@H](O)[C@@H](O)[C@H]2O)cc1` to `OC[C@H]1O[C@@H](Oc2cc(O)cc(/C=C/c3ccc(O)cc3)c2)[C@H](O)[C@@H](O)[C@@H]1O`, the log falls from 0.0173 to -0.234.

`CC(=O)[C@H]1CC[C@H]2[C@@H]3CCC4=CC(=O)CC[C@]4(C)[C@H]3CC[C@]12C` and `C#C[C@]1(O)CC[C@H]2[C@@H]3CCc4cc(O)ccc4[C@H]3CC[C@@]21C` are within 0.2 log units of each other in log: 0.159 for the first, 0.0524 for the second.

Going from `CN1[C@@H]2CC[C@H]1C[C@@H](OC(=O)c1c[nH]c3ccccc13)C2` to `CN1CCc2cc(Cl)c(O)cc2[C@@H](c2ccccc2)C1`, the log rises from -0.284 to 0.073.

`O=c1cnn([C@@H]2O[C@H](CO)[C@@H](O)[C@H]2O)c(=O)[nH]1` and `OC[C@H]1O[C@@H](n2cnc3c(N[C@H]4CCC[C@@H]4O)ncnc32)[C@@H](O)C1O` (stereo partly drawn) [Adenosine, N-(2-hydroxycyclopentyl)-, (1S-trans)- [CAS]] are within 0.2 log units of each other in log: 0.103 for the first, 0.0941 for the second.

Going from `CN1CCN2c3ncccc3Cc3ccccc3C2C1` (stereo not drawn) to `O=C1CC2(CCCC2)CC(=O)N1CCNCC1COc2ccccc2O1` (stereo not drawn), the log rises from -0.253 to -0.0178.

Going from `Nc1ccn([C@H]2CC[C@@H](CO)O2)c(=O)n1` to `NC(N)=Nc1nc(CSCC/C(N)=N/S(N)(=O)=O)cs1`, the log rises from -0.294 to -0.0697.

Going from `CCOC(=O)C1=C(C)NC(C)=C(C(=O)OCC)C1c1ccccc1/C=C/C(=O)OC(C)(C)C` to `CCOC(=O)C1=C(COCCN)NC(C)=C(C(=O)OC)C1c1ccccc1Cl` (stereo not drawn), the log rises from -0.702 to 0.082.

`CC[C@H](C)C(=O)O[C@H]1C[C@H](O)C=C2C=C[C@H](C)[C@H](CC[C@@H](O)C[C@@H](O)CC(=O)O)[C@H]21` [PRAVASTATIN Sodium] gave a log of -0.0499.

Tested on: HEK 293FT
Test: as above
Details: 10 µM; time after transfection 48 h
Remark: another data set of the same source

`c1cnc(N2CCN(Cc3ccc4c(c3)OCO4)CC2)nc1` [Piribedil] and `O=C1CC2(CCCC2)CC(=O)N1CCNCC1COc2ccccc2O1` (stereo not drawn) are within 0.2 log units of each other in log: -0.0311 for the first, 0.0692 for the second.

Compared with `CS(=O)(=O)c1ccc(-c2cc(Br)sc2-c2ccc(F)cc2)cc1`, `COc1ccccc1OCCNCC(O)COc1cccc2[nH]c3ccccc3c12` (stereo not drawn) [Carvedilol] is higher in log: -0.614 for the first, 0.00231 for the second.

`CCN1CCCC1CNC(=O)c1cc(S(=O)(=O)CC)c(N)cc1OC` (stereo not drawn) [Amisulpride] and `CCN1CCC[C@H]1CNC(=O)c1c(O)c(Cl)cc(Cl)c1OC` [Raclopride] are within 0.2 log units of each other in log: 0.027 for the first, 0.116 for the second.

`CCCCN1CCCC1CNC(=O)c1cc(C#N)c2ccccc2c1OC` (stereo not drawn) [Nafadotride] and `CN1CCc2cc(Cl)c(O)cc2[C@@H](c2ccccc2)C1` are within 0.2 log units of each other in log: -0.00108 for the first, 0.0168 for the second.
